Laboratory results taken from paper PMC7814697 (The Journal of organic chemistry, 2019).
Values after ≈ are worked out from the molar mass of the structure shown.

Key:
[1] = system: Escherichia coli ATCC 10798; assay: Minimum inhibitory concentration; type: cell-based; conditions: ATCC10798, read-out: MIC, Escherichia coli ATCC 10798, with 0.002% polysorbate 80
[2] = system: Staphylococcus aureus ATCC 29213; assay: Minimum inhibitory concentration; type: cell-based; conditions: ATCC29213, read-out: MIC, Staphylococcus aureus ATCC 29213, with 0.002% polysorbate 80

`CN[C@H](CC(C)C)C(=O)N[C@H]1C(=O)N[C@@H](CC(N)=O)C(=O)N[C@H]2C(=O)N[C@H]3C(=O)N[C@H](C(=O)N[C@H](C(=O)O)c4cc(O)cc(O)c4-c4cc3ccc4O)[C@H](O)c3ccc(c(Cl)c3)Oc3cc2cc(c3O[C@@H]2O[C@H](CO)[C@@H](O)[C@H](O)[C@H]2O[C@H]2C[C@](C)(N)[C@H](O)[C@H](C)O2)Oc2ccc(cc2Cl)[C@H]1O` [vancomycin] was tested, and the MIC [1] was over 8 µg/mL and the MIC [2] was 0.125 µg/mL (≈ 0.0863 µM).
